In doi:10.1101/466946:
These are yes or no findings as the source states them, for the method shown. In cells and extracts the contact can be indirect. Binding calls can cover weak binding; strength is not graded here.

Sequences of proteins named here, by UniProt entry; tags and fusion partners are left off. A change or cut given only in a name is not applied to a line headed by its entry.
UniProt Q96B97: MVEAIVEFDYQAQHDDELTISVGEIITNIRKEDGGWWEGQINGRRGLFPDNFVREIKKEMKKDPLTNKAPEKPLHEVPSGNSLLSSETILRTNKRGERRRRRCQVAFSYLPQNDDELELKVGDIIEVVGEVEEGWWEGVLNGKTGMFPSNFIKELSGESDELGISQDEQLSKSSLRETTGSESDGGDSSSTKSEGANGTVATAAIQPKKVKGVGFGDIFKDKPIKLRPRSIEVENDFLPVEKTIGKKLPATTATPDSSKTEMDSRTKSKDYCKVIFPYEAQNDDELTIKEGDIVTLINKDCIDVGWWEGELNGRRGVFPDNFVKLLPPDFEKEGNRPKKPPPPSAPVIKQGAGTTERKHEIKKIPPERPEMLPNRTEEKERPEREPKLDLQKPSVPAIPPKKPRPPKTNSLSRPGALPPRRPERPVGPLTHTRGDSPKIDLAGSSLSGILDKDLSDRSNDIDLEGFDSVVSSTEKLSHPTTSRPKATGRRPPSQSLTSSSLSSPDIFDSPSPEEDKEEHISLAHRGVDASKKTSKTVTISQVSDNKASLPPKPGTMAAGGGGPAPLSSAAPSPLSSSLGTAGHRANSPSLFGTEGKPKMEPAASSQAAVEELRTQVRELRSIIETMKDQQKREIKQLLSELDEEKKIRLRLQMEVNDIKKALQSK
UniProt Q9GZT9: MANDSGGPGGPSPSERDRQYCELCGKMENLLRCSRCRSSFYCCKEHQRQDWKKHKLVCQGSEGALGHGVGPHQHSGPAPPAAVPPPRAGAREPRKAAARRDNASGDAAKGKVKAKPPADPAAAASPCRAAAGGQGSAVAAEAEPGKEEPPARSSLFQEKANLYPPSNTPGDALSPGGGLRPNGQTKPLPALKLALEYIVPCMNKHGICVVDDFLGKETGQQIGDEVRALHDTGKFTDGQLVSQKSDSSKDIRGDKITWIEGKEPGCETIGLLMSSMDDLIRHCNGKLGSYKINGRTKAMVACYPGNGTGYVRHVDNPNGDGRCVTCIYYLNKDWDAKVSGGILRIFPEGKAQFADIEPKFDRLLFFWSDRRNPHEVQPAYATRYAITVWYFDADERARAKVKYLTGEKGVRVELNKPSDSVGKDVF

Columns and labels:
[1] = target: FLAG-tagged CIN85 lacking SH3B (UniProt Q96B97); experiment: co-IP
[2] = target: FLAG-tagged CIN85 lacking SH3C (UniProt Q96B97); experiment: co-IP

For “V5-tagged wild-type PHD2 (from UniProt Q9GZT9 1-426) (enzyme)”, the binding [1] was “binds” and the binding [2] was “binds”.
